No constants are given. Whether binding was seen depends on the method and setting. In cells and extracts the contact can be indirect. Some binding calls cover weakened binding; strength is not graded here.
Assays:
[1] = biological target: T1, Boc (bioregional Cdon-binding protein), endogenous (mouse (endogenous in NIH3T3)) (UniProt Q6AZB0); assay: co-IP; NIH3T3/Cas9 Ptch1 KO cells transfected with mouse Ptch1, stimulated with Shh for 24 h; IP of Ptch1 and reciprocal IP of endogenous Boc, Western blot
T1 sequence: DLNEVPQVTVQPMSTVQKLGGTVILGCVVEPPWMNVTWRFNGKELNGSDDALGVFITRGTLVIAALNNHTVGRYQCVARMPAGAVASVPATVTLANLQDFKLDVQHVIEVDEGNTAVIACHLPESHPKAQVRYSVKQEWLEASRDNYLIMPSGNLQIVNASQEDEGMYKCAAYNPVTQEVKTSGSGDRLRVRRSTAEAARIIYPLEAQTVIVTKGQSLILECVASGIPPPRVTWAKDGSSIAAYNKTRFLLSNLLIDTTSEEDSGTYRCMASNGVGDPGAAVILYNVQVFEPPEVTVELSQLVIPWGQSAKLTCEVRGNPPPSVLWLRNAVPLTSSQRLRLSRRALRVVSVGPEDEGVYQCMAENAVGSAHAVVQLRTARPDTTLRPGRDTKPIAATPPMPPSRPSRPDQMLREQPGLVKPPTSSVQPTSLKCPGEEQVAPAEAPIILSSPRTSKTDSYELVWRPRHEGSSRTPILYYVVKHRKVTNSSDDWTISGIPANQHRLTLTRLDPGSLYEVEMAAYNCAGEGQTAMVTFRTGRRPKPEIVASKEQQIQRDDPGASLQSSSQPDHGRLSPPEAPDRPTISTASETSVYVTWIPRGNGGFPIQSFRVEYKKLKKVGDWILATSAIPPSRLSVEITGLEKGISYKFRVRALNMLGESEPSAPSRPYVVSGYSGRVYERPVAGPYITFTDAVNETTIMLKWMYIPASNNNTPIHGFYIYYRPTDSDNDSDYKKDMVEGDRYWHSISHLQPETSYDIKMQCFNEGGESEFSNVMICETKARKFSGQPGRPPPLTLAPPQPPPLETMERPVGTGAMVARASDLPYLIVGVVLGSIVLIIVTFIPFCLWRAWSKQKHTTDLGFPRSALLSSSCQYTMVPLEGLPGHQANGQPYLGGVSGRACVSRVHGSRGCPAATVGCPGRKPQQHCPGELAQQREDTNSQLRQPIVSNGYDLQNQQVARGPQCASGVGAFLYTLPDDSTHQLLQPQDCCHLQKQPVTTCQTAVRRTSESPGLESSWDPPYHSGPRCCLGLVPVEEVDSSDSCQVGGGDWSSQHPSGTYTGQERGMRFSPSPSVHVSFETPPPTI

Amino acid sequences for entries named in this document (tags omitted). Residues count along the entry.
UniProt P56726, residues 33-793: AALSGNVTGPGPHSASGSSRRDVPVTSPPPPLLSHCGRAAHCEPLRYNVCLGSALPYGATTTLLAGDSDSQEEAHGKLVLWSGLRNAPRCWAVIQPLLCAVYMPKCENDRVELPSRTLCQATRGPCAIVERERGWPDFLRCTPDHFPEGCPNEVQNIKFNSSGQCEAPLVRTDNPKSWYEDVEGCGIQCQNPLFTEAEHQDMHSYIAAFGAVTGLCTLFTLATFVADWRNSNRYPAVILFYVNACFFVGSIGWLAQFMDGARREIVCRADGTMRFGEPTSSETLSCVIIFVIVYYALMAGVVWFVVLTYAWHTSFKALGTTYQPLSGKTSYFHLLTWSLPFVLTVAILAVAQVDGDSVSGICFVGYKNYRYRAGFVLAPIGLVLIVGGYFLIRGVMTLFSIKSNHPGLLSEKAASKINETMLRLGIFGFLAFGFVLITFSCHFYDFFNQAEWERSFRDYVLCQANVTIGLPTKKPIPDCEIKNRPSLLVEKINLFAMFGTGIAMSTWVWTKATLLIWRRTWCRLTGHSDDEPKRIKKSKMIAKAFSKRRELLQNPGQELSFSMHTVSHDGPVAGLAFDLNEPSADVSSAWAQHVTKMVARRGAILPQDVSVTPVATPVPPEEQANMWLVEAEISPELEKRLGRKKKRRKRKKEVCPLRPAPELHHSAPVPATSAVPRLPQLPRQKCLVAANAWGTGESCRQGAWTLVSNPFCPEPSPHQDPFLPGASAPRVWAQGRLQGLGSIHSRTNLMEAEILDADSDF

[2] = biological target: T2, mouse Ptch1 (pcDNA3-mPtch1) (mouse) (UniProt Q61115); assay: as above
T2 sequence: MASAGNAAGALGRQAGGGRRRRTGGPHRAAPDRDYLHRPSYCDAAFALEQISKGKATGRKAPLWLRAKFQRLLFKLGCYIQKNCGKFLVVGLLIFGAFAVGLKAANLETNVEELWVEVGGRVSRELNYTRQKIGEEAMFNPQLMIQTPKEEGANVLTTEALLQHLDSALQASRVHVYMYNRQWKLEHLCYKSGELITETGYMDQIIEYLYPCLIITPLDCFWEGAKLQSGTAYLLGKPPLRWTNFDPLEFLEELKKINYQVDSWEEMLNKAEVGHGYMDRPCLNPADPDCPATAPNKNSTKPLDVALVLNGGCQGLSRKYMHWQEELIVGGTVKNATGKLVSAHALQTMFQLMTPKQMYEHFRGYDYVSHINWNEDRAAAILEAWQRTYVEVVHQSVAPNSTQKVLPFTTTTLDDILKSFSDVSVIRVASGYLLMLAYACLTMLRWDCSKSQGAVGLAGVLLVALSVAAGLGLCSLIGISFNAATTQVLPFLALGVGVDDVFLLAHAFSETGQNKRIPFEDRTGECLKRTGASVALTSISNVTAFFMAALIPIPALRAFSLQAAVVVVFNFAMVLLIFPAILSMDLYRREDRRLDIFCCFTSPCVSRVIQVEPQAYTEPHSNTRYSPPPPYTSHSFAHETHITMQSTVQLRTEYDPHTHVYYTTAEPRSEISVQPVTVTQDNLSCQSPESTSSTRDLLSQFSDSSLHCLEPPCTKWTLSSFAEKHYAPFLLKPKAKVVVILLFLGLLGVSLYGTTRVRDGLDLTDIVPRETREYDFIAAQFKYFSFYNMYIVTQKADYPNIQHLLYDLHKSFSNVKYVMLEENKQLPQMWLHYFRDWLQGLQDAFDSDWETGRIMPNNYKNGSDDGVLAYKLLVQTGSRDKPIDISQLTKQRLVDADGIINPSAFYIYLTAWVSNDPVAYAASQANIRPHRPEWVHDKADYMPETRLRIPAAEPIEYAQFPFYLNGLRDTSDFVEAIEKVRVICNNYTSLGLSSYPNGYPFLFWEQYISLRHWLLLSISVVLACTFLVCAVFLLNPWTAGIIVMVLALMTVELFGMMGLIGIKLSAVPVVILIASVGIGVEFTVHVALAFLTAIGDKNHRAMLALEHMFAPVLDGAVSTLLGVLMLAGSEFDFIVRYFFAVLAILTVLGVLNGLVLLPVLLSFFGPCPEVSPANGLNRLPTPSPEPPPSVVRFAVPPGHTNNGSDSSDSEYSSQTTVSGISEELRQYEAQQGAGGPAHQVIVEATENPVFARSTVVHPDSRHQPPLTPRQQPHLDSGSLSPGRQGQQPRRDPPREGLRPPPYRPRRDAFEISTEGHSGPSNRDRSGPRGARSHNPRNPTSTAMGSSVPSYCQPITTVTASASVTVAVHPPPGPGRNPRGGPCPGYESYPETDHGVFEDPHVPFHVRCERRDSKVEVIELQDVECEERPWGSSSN

[3] = biological target: T2, mouse Ptch1 (pcDNA3-mPtch1) (mouse); assay: co-IP; NIH3T3/Cas9 Ptch1 KO cells transfected with mouse Ptch1, unstimulated and 40 min after Shh (partial release at 40 min); IP of Ptch1 and reciprocal IP of endogenous Boc, Western blot

binding [3]: binds
Substance: Smoothened (Smo), endogenous (from UniProt P56726 33-793) (receptor)
binding [1]: no binding (condition: after Shh for 24 h) | binding [2]: no binding (condition: after Shh for 24 h)
